No constants are given. Whether binding was seen depends on the method and setting. For part of these data: Binding can be weak; no strength is given. Blank lines part the entries; values can stand above or below the binder they belong to.
Experiments:
[1] = biological target: CENP-F 2819-3114 fragment, two-hybrid bait (pEG202) (human); assay: two-hybrid; LexA operator-driven; bait pEG202-CENP-F 2819-3114, prey pJG4-5 with full length RB, RB 301-918 or Miro1, strain EGY48; growth on leucine dropout medium
[2] = biological target: CENP-F 2977-3020 F2989A, two-hybrid bait (human); assay: two-hybrid; LexA operator-driven; bait pEG202-CENP-F 2977-3020 (wild type or alanine mutants), prey pJG4-5-Miro1 1-594, strain EGY48; X-gal overlay on Gal/SD-His-Ura-Trp and growth on Gal/SD-Leu, 48 h at 30°C
[3] = biological target: CENP-F 2977-3020 G2988A, two-hybrid bait (human); assay: as above
[4] = biological target: CENP-F 2977-3020 T2997A, two-hybrid bait (human); assay: as above

- binding [1]: binds
- binding [2]: no binding
- binding [3]: no binding
- binding [4]: binds
B1: Miro1 1-594, two-hybrid prey pJG4-5-Miro1^1-594 (domain or fragment, UniProt Q8IXI2 1-594)
chain: MKKDVRILLVGEPRVGKTSLIMSLVSEEFPEEVPPRAEEITIPADVTPERVPTHIVDYSEAEQSDEQLHQEISQANVICIVYAVNNKHSIDKVTSRWIPLINERTDKDSRLPLILVGNKSDLVEYSSMETILPIMNQYTEIETCVECSAKNLKNISELFYYAQKAVLHPTGPLYCPEEKEMKPACIKALTRIFKISDQDNDGTLNDAELNFFQRICFNTPLAPQALEDVKNVVRKHISDGVADSGLTLKGFLFLHTLFIQRGRHETTWTVLRRFGYDDDLDLTPEYLFPLLKIPPDCTTELNHHAYLFLQSTFDKHDLDRDCALSPDELKDLFKVFPYIPWGPDVNNTVCTNERGWITYQGFLSQWTLTTYLDVQRCLEYLGYLGYSILTEQESQASAVTVTRDKKIDLQKKQTQRNVFRCNVIGVKNCGKSGVLQALLGRNLMRQKKIREDHKSYYAINTVYVYGQEKYLLLHDISESEFLTEAEIICDVVCLVYDVSNPKSFEYCARIFKQHFMDSRIPCLIVAAKSDLHEVKQEYSISPTDFCRKHKMPPPQAFTCNTADAPSKDIFVKLTTMAMYPHVTQADLKSSTFWL

- binding [1]: no binding
B2: RB 301-918 fragment, two-hybrid prey (pJG4-5) (domain or fragment, UniProt P06400 301-918)
chain: NSLGLVTSNGLPEVENLSKRYEEIYLKNKDLDARLFLDHDKTLQTDSIDSFETQRTPRKSNLDEEVNVIPPHTPVRTVMNTIQQLMMILNSASDQPSENLISYFNNCTVNPKESILKRVKDIGYIFKEKFAKAVGQGCVEIGSQRYKLGVRLYYRVMESMLKSEEERLSIQNFSKLLNDNIFHMSLLACALEVVMATYSRSTSQNLDSGTDLSFPWILNVLNLKAFDFYKVIESFIKAEGNLTREMIKHLERCEHRIMESLAWLSDSPLFDLIKQSKDREGPTDHLESACPLNLPLQNNHTAADMYLSPVRSPKKKGSTTRVNSTANAETQATSAFQTQKPLKSTSLSLFYKKVYRLAYLRLNTLCERLLSEHPELEHIIWTLFQHTLQNEYELMRDRHLDQIMMCSMYGICKVKNIDLKFKIIVTAYKDLPHAVQETFKRVLIKEEEYDSIIVFYNSVFMQRLKTNILQYASTRPPTLSPIPHIPRSPYKFPSSPLRIPGGNIYISPLKSPYKISEGLPTPTKMTPRSRILVSIGESFGTSEKFQKINQMVCNSDRVLKRSAEGSNPPKPLKKLRFDIEGSDEADGSKHLPGESKFQQKLAEMTSTRTRMQKQKMND

- binding [1]: no binding
B3: retinoblastoma (RB) protein, full length, two-hybrid prey (pJG4-5) (protein, UniProt P06400 1-928)
chain: MPPKTPRKTAATAAAAAAEPPAPPPPPPPEEDPEQDSGPEDLPLVRLEFEETEEPDFTALCQKLKIPDHVRERAWLTWEKVSSVDGVLGGYIQKKKELWGICIFIAAVDLDEMSFTFTELQKNIEISVHKFFNLLKEIDTSTKVDNAMSRLLKKYDVLFALFSKLERTCELIYLTQPSSSISTEINSALVLKVSWITFLLAKGEVLQMEDDLVISFQLMLCVLDYFIKLSPPMLLKEPYKTAVIPINGSPRTPRRGQNRSARIAKQLENDTRIIEVLCKEHECNIDEVKNVYFKNFIPFMNSLGLVTSNGLPEVENLSKRYEEIYLKNKDLDARLFLDHDKTLQTDSIDSFETQRTPRKSNLDEEVNVIPPHTPVRTVMNTIQQLMMILNSASDQPSENLISYFNNCTVNPKESILKRVKDIGYIFKEKFAKAVGQGCVEIGSQRYKLGVRLYYRVMESMLKSEEERLSIQNFSKLLNDNIFHMSLLACALEVVMATYSRSTSQNLDSGTDLSFPWILNVLNLKAFDFYKVIESFIKAEGNLTREMIKHLERCEHRIMESLAWLSDSPLFDLIKQSKDREGPTDHLESACPLNLPLQNNHTAADMYLSPVRSPKKKGSTTRVNSTANAETQATSAFQTQKPLKSTSLSLFYKKVYRLAYLRLNTLCERLLSEHPELEHIIWTLFQHTLQNEYELMRDRHLDQIMMCSMYGICKVKNIDLKFKIIVTAYKDLPHAVQETFKRVLIKEEEYDSIIVFYNSVFMQRLKTNILQYASTRPPTLSPIPHIPRSPYKFPSSPLRIPGGNIYISPLKSPYKISEGLPTPTKMTPRSRILVSIGESFGTSEKFQKINQMVCNSDRVLKRSAEGSNPPKPLKKLRFDIEGSDEADGSKHLPGESKFQQKLAEMTSTRTRMQKQKMNDSMDTSNKEEK
